Assay results from patent publication US20070065829.
Where cells or extracts were used, other partners may take part. Protein sequences can lack the tags named with them.

Target: T1, Serum response factor (SRF) (Mus musculus) (UniProt Q9JM73)
T1 sequence (looked up, limits assumed): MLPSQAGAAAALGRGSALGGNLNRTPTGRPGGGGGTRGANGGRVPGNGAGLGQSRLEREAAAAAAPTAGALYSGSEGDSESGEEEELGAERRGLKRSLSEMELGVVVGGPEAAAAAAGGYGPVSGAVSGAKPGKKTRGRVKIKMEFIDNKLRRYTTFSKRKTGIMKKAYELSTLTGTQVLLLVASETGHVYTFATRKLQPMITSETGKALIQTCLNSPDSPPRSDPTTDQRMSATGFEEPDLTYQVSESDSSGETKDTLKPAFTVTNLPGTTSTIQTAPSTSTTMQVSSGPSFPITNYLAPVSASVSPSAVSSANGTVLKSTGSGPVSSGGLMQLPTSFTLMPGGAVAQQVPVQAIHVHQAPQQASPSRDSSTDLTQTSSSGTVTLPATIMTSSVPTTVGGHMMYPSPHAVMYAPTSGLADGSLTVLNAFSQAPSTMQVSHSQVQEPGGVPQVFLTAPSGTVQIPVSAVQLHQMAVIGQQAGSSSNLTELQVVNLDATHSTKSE
Test: EMSA
Conditions: One of the new complexes in differentiated Monc-1 nuclear extract contained SRF (supershift); 250x competitor; 25 mM Hepes pH 7.9, 40 mM KCl, 3 mM MgCl2, room temperature; protein in an extract; label: 32P

## TCGAGACTTGGTGTCTTTCCCCAAATATGGAGCCTGTGTGGAGTG (double strand) [SM22alpha promoter CArG element probe]
  binding result: binds
